{"source": "patent US7335669B2", "about": "“Use of dihydroquinoline to aid in increasing milk production and feed utilization” (Novus International, Inc., priority 2002, dated 2008)", "test_system": "lactating dairy cows", "experiment": "Example 2: switch-over pen trial, ethoxyquin 65 ppm in feed for three weeks, approximately 2400 lactating dairy cows", "type": "in vivo", "source_text": "Approximately 2400 lactating dairy cows were divided into two treatment groups of four pens per group. The cows in one of the two groups were fed ethoxyquin (at a concentration of 65 ppm by weight based on the weight of the total feed fed to the cows) for three weeks, with the four pens of the other group serving as controls. For the next two weeks, neither of the groups was fed ethoxyquin. The pens were then switched so that the previous control group was fed ethoxyquin (at a concentration of 65 ppm by weight based on the weight of the total feed fed to the cows) for three weeks. Milk production and feed intake were measured and feed efficiencies were calculated. The following table reports the means and pooled SEM results after correction for pen effects (wherein “Treated” refers to the cows receiving the ethoxyquin): […]", "key": {"[1]": {"conditions": "ethoxyquin 65 ppm by weight of total feed, three weeks"}}, "data": [{"compound": "CCOc1ccc2c(c1)C(C)=CC(C)(C)N2", "note": "[ethoxyquin, 6-ethoxy-1,2-dihydro-2,2,4-trimethylquinoline]", "values": [{"measurement": "Variations in milk composition, treated vs control", "setting": "ethoxyquin 65 ppm", "result": "within the range of experimental error and so not significant"}, {"measurement": "Milk content: Fat", "setting": "[1]", "result": 3.31, "unit": "%"}, {"measurement": "Milk content: Lactose", "setting": "[1]", "result": 4.78, "unit": "%"}, {"measurement": "Milk content: Protein", "setting": "[1]", "result": 2.92, "unit": "%"}, {"measurement": "Milk content: SNF", "setting": "[1]", "result": 8.60, "unit": "%"}]}]}
